“And” between values parts separate entries of the source, which are not always exact repeats. Equal entries are not always repeated. ± gives the standard deviation of the averaged measurements. The list shows a part of the results. Repeats in this data set agree poorly, so a single value says little.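 U2OS cells expressing ACE2 were combined with U2OS cells expressing full-length spike, and imaging quantified fusion as the fraction of nuclei displaying both cell types' fluorescent markers. Non-toxic compounds with a fusion z-score under -3, i.e., over three standard deviations below the plate's DMSO wells, are called inhibitory hits.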
tested on: U2OS ACE2 x SARS-CoV-2 spike co-culture; assay: cell-cell fusion (fraction fused) z-score vs plate DMSO control; higher = more fusion; conditions: 30 µM; 5 h; toxicity class: non-toxic, passed QC

Compound	cell-cell fusion (z-score)
CCCC(=O)NCCc1c2n(c3ccc(OC)cc13)CCCc1ccccc1-2	inactive: 4.06
CCN(CC)CCOCCOC(=O)C1(c2ccccc2)CCCC1.O=C(O)CC(O)(CC(=O)O)C(=O)O [Carbetapentane citrate]	inactive: 1.78
CCN(CC)CCOCCOC(=O)C1(c2ccccc2)CCCC1.O=C(O)CC(O)(CC(=O)O)C(=O)O	inactive: 0.811
CCCOc1ccccc1-c1nc2[nH]nnc2c(=O)[nH]1	inactive: 0.568
C=COCC(F)(F)F	inactive: 1.4
O.O.O.O.O.O.O.O=C1CN(/N=C/c2ccc(-c3ccc([N+](=O)[O-])cc3)o2)C(=O)[N-]1.O=C1CN(/N=C/c2ccc(-c3ccc([N+](=O)[O-])cc3)o2)C(=O)[N-]1.[Na+].[Na+] [Dantrolene sodium hemiheptahydrate]	inactive: 2.08
COCCCOc1ccnc(CS(=O)c2nc3ccccc3[n-]2)c1C.[Na+] (stereo unspecified) [Rebeprazole sodium]	inactive: -0.61
COc1cc2c(cc1OC)Cc1cc(OC)c(OC)cc1Cc1cc(OC)c(OC)cc1C2	inactive: 1.76
O=NN(CCCl)C(=O)NC1CCCCC1	inactive: 1.64
CN1CCc2cc3c(cc2[C@H]1C1OC(=O)c2c1ccc1c2OCO1)OCO3 (stereo partly specified)	inactive: 2.57
Cc1cc(OC(=O)c2c(C)cc(O)cc2O)cc(O)c1C(=O)O	inactive: 1.94
O=C(O)c1cc2ccccc2[nH]1	inactive: 5.03
CN(C)C(=O)Oc1ccc[n+](C)c1.[Br-] [Mestinon]	inactive: 3.91
Br.NCc1cc(O)no1 [Muscimol hydrobromide]	inactive: 2.22
Cn1c(=O)c2[nH]cnc2n(C)c1=O.Cn1c(=O)c2[nH]cnc2n(C)c1=O.NCCN [Aminophylline]	inactive: 1.09
Clc1ccc(C2(c3ccc(-c4cn[nH]c4)cc3)CCNCC2)cc1	inactive: -2.9
NC[C@H](O)c1ccc(O)c(O)c1 [Norepinephrine]	inactive: 0.941
COC(=O)OCOc1c2n(ccc1=O)N(C1c3ccccc3SCc3c1ccc(F)c3F)C1COCCN1C2=O (stereo unspecified) [Baloxavir marboxil]	inactive: 0.634
CC(=O)N[C@@H](CS)C(=O)O [N-Acetyl-L-Cysteine]	inactive: 1.54
CCCN1C[C@H](CSC)C[C@@H]2c3cccc4[nH]cc(c34)C[C@H]21.CS(=O)(=O)O [Pergolide methanesulfonate]	inactive: -1.22
CC(Cl)(Cl)C(=O)O	inactive: 2.94
COc1ccc(-c2cc(=O)c3c(O)c(OC)c(OC)c(OC)c3o2)cc1OC	inactive: 2.64
O=C1OCCN1/N=C/c1ccc([N+](=O)[O-])o1 [Furazolidone]	inactive: 1.72
Cc1nc(C#Cc2cccnc2)cs1.Cl [MTEP hydrochloride]	inactive: 3.2

Taken from above:
Entry of CN1CCc2cc3c(cc2[C@H]1C1OC(=O)c2c1ccc1c2OCO1)OCO3 (stereo partly specified) under cell-cell fusion (z-score): inactive: 2.57
Entry of COc1cc2c(cc1OC)Cc1cc(OC)c(OC)cc1Cc1cc(OC)c(OC)cc1C2 under cell-cell fusion (z-score): inactive: 1.76
Entry of CCCN1C[C@H](CSC)C[C@@H]2c3cccc4[nH]cc(c34)C[C@H]21.CS(=O)(=O)O [Pergolide methanesulfonate] under cell-cell fusion (z-score): inactive: -1.22
Entry of CCN(CC)CCOCCOC(=O)C1(c2ccccc2)CCCC1.O=C(O)CC(O)(CC(=O)O)C(=O)O [Carbetapentane citrate] under cell-cell fusion (z-score): inactive: 1.78

More results

Compound	cell-cell fusion (z-score)
CCC1(C2=NCCN2)Cc2ccccc2O1.Cl (stereo unspecified) [Efaroxan hydrochloride]	inactive: 5.03
CCC1(C2=NCCN2)Cc2ccccc2O1.Cl (stereo unspecified)	inactive: 1.81
Cc1ccccc1N1C(=O)c2cc(S(N)(=O)=O)c(Cl)cc2NC1C (stereo unspecified)	inactive: 3.25
COc1ccc(-c2cc[c+](N)n(CCCC(=O)O)n2)cc1.[Br-]	inactive: 2.63
C[C@H](Cn1cnc2c(N)ncnc21)OCP(=O)(O)O.NCCO	inactive: 1.33
CC(C(=O)O)c1cccc(C(=O)c2ccccc2)c1 (stereo unspecified) [Ketoprofen]	inactive: 2.87
[O-][n+]1ccccc1[S-].[O-][n+]1ccccc1[S-].[Zn+2]	inactive: 0.952
COc1cc([C@@H]2c3cc4c(cc3[C@H](OC(C)=O)[C@H]3COC(=O)[C@@H]23)OCO4)cc(OC)c1OC	inactive: 2.27
COCCc1ccc(OCC(O)CNC(C)C)cc1.COCCc1ccc(OCC(O)CNC(C)C)cc1.O=C(O)C(O)[C@H](O)C(=O)O (racemic) [(±)-Metoprolol (+)-tartrate]	inactive: 1.88
O=C(Oc1cccc2cccnc12)c1ccccc1	inactive: 3.94
CC1(C)O[C@@H]2C[C@H]3[C@@H]4C[C@H](F)C5=CC(=O)C=C[C@]5(C)[C@@]4(F)[C@@H](O)C[C@]3(C)[C@]2(C(=O)CO)O1 [Fluocinolone acetonide]	inactive: 0.986
O=C(O)c1cc(O)c2ccccc2n1	inactive: 3
Cl.N=C(N)NC(=N)NCCc1ccccc1	inactive: 1.3
CC[C@H]1C2CC3[C@@H]4N(C)c5ccccc5[C@]45C[C@@H](C2C5O)N3[C@@H]1O (stereo partly specified)	inactive: 1.72
C[N+]1(C)CCCC(OC(=O)C(O)(c2ccccc2)c2ccccc2)C1.[Br-] (stereo unspecified) [Mepenzolate Bromide]	inactive: 2.82
O=S(=O)(OC[C@H]1O[C@@](COS(=O)(=O)[O][Al]([OH])[OH])(O[C@H]2O[C@H](COS(=O)(=O)[O][Al]([OH])[OH])[C@@H](OS(=O)(=O)[O][Al]([OH])[OH])[C@H](OS(=O)(=O)[O][Al]([OH])[OH])[C@H]2OS(=O)(=O)[O][Al]([OH])[OH])[C@@H](OS(=O)(=O)[O][Al]([OH])[OH])[C@@H]1OS(=O)(=O)[O][Al]([OH])[OH])[O][Al]([OH])[OH].[OH][Al]([OH])[OH].[OH][Al]([OH])[OH].[OH][Al]([OH])[OH].[OH][Al]([OH])[OH].[OH][Al]([OH])[OH].[OH][Al]([OH])[OH].[OH][Al]([OH])[OH].[OH][Al]([OH])[OH]	inactive: 2.2
CCn1cc(C(=O)O)c(=O)c2cc3c(cc21)OCO3 [Oxolinic acid]	inactive: 2.01
Cc1cc2nc3c(=O)[nH]c(=O)nc-3n(C[C@@H](O)[C@@H](O)[C@@H](O)COP(=O)([O-])O)c2cc1C.[Na+]	inactive: 2.14
COc1c(O)cc2c(c1O)[C@H]1O[C@H](CO)[C@@H](O)[C@H](O)[C@@H]1OC2=O	inactive: 1.24
NC(=O)OCC(COC(N)=O)c1ccccc1 [Felbamate]	inactive: 2.71
COC(=O)c1cc(OC)c(=O)c2c(OC)c(OC)ccc2c1	inactive: -0.461
CC[C@@H](C(=O)O)[C@@H]1O[C@@H]([C@@H](C)[C@H](O)[C@H](C)C(=O)[C@H](CC)[C@H]2O[C@]3(C=C[C@@H](O)[C@]4(CC[C@@](C)(C5CC[C@](O)(CC)[C@H](C)O5)O4)O3)[C@H](C)C[C@@H]2C)[C@@H](C)C[C@H]1C (stereo partly specified)	inactive: 1.93
O=C(Nc1ccccc1)c1cc([N+](=O)[O-])ccc1Cl	inactive: 0.788
CC1(C)CC[C@]2(C(=O)O)CC[C@]3(C)C(=CCC4[C@@]5(C)CC[C@@H](O)C(C)(C)C5CC[C@]43C)C2C1 (stereo partly specified)	inactive: 2.76

Compound	cell-cell fusion (z-score)
CC(C)(C)NCC(O)c1cc(O)cc(O)c1.CC(C)(C)NCC(O)c1cc(O)cc(O)c1.O=S(=O)(O)O (stereo unspecified) [Terbutaline hemisulfate]	inactive: -1.97
CC(C)(C)NCC(O)COc1cccc2[nH]c(=O)[nH]c12.Cl (racemic)	inactive: 1.82
Cc1oncc1C(=O)Nc1ccc(C(F)(F)F)cc1 [Leflunomide]	inactive: 1.71
CCCC1O[C@@H]2C[C@H]3[C@@H]4CCC5=CC(=O)C=C[C@]5(C)[C@H]4[C@@H](O)C[C@]3(C)[C@]2(C(=O)CO)O1 (stereo partly specified) [Budesonide]	-1.28 ± 3.3
OCCn1cc(-c2ccc3c(c2)CC/C3=N\O)c(-c2ccncc2)n1	inactive: -0.722
CNC(=O)Nc1ccc(-c2nc(N3CC4CCC(C3)O4)c3cnn(C4CCC5(CC4)OCCO5)c3n2)cc1	inactive: 0.691
O=C1O[C@H](C(O)CO)C(O)=C1O (stereo partly specified)	inactive: 0.717
COc1ccc(Cc2nccc3cc(OC)c(OC)cc23)cc1OC.Cl [Papaverine hydrochloride]	inactive: 0.229
CC1=NS(=O)(=O)c2cc(Cl)ccc2N1 [Diazoxide]	inactive: 2.8
Cn1c(=O)cc(N2CCC[C@@H](N)C2)n(Cc2ccccc2C#N)c1=O.O=C(O)c1ccccc1 [Alogliptin Benzoate]	inactive: 1.67
CCCCS(=N)(=O)CC[C@H](N)C(=O)O (stereo partly drawn) [L-Buthionine-sulfoximine]	inactive: 1.53
O[C@@H]1[C@H](O)CO[C@H]1O	inactive: 1.43
CC(C)c1nc(CN(C)C(=O)N[C@@H](CCN2CCOCC2)C(=O)N[C@H](CC[C@H](Cc2ccccc2)NC(=O)OCc2cncs2)Cc2ccccc2)cs1 [Cobicistat]	inactive: 1.48
C[C@]12CC[C@H](O)C[C@H]1CCC1C2CC[C@]2(C)[C@@H](C3=CC(=O)OC3)[C@@H](O)C[C@]12O (stereo partly specified)	inactive: 1.4
C[C@@H](c1nc(-c2ccc(C#N)cc2)cs1)[C@](O)(Cn1cncn1)c1cc(F)ccc1F [Isavuconazole]	inactive: -0.509
Cc1c[nH]cn1	inactive: 1.77
CS(C)(=O)=O	inactive: 1.69
CCN1CCC[C@H]1CNC(=O)c1cc(S(N)(=O)=O)ccc1OC [(-)-Sulpiride]	inactive: 0.557
C[n+]1cccc(C(=O)[O-])c1	inactive: 1.77
CC(=O)OC/C=C(\C)CC/C=C(\C)CC/C=C(\C)CC/C=C(\C)CC/C=C(\C)CC/C=C(\C)CC/C=C(\C)CC/C=C(\C)CCC=C(C)C	inactive: 2.11
CN(C)N=Nc1nc[nH]c1C(N)=O [Dacarbazine]	inactive: 2.42
O=c1[nH]cnc2c1ncn2[C@H]1CC[C@@H](CO)O1 [Didanosine]	inactive: 1.48
Cl.Cl.O.O=c1ccc2[nH]cc(C3=CCNCC3)c2[nH]1	inactive: 2.24 and inactive: 4
